Results from one PubChem assay

From PubChem BioAssay record AID1224904 (Broad Institute, 2016).

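293T-iDUX4 dual-reporter cells; luminescence of the tet-on Italica luciferase control is read after 24 h.
The test concentration is not given here.
Percent change in the Italica control signal; more negative values mean stronger inhibition, which points to nonspecific, tet-on or cytotoxic effects.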

Values are in %.
Common to all entries: measured here: Italica tet-on control reporter.
Part of the compounds only, not a random draw; the main read-out is not listed here.

structure,activity change (%)
COC(=O)[C@H]1[C@H](CO)[C@H]2Cn3c(ccc(-c4ccccc4)c3=O)[C@H]2N1CC1CCCCC1,-32.14
C[C@@H]1CN([C@@H](C)CO)C(=O)c2c(c3ccccc3n2C)-c2ccccc2CO[C@@H]1CN(C)C(=O)[C@@H](Cc1ccccc1)N(C)C,-9.855
COc1cccc(-c2ccc3c(c2)[C@H]2[C@H](CCN2C(=O)Cc2ccncc2)[C@H](CO)N3)c1,-15.39
CCCNC(=O)N1CC(=O)N2[C@@H](CO)[C@H](c3ccc(C#Cc4cccc(F)c4)cc3)[C@@H]2C1,-16.42
CN(C)C(=O)c1cccc(-c2ccc3c(c2)[C@H]2[C@H](CCN2C(=O)c2ccc4c(c2)OCO4)[C@@H](CO)N3)c1,-25.09
O=C(Nc1ccccc1F)N1CCCCN2[C@H](CO)[C@H](c3ccc(/C=C/c4ccccc4)cc3)[C@@H]2C1,-11.88
CC(C)NC(=O)N1CCCCN2[C@@H](CO)[C@H](c3ccc(C#Cc4ccccc4)cc3)[C@@H]2C1,-28.86
O=C(C[C@H]1C[C@@H]2c3cc(NC(=O)C4CCOCC4)ccc3O[C@@H]2[C@H](CO)O1)NCc1ccc(Oc2ccccc2)cc1,-7.806
COc1cccc(-c2ccc3c(c2)[C@@H]2[C@@H](CCN2S(=O)(=O)c2ccccc2C)[C@@H](CO)N3)c1,-73.75
O=C(C[C@H]1CC[C@H]2[C@@H](COC[C@@H](O)CN2Cc2nccs2)O1)NCc1ccc(Oc2ccccc2)cc1,-16.47
O=C(Nc1ccc(Cl)cc1)N[C@@H]1CC[C@H](CCn2cc(-c3ccccc3F)nn2)O[C@@H]1CO,-19.07
OC[C@H]1Nc2ccc(-c3ccccc3)cc2[C@@H]2[C@H]1CCN2Cc1ccccc1F,-65.66
C[C@H](CO)N1C[C@H](C)[C@@H](CN(C)Cc2cccc(O)c2)OCc2ccccc2-c2c(n(C)c3ccccc23)C1=O,-3.817
N#C[C@H]1[C@H](c2ccccc2C2=CCCC2)[C@@H](CO)N1C(=O)NC1CCCCC1,-30.93
COc1ccc(-c2ccc3c(c2)[C@@H]2[C@@H](CCN2S(=O)(=O)c2ccccc2F)[C@@H](CO)N3)cc1,-45.8
O=C(Cc1ccccc1)N1CC(=O)N2[C@H](C1)[C@@H](c1ccc(-c3ccc(F)cc3)cc1)[C@@H]2CO,-21.08
C/C=C/c1ccc([C@@H]2[C@H](CO)N(CC3CCCC3)C23CN(C(=O)CC)C3)cc1,-11.62
O=C(c1ccc2c(c1)OCO2)N1CC(=O)N2[C@@H](CO)[C@@H](c3ccc(C#CC4CCCC4)cc3)[C@@H]2C1,-21.3
COc1ccccc1S(=O)(=O)N1CC[C@@H]2[C@H](CO)Nc3ccc(-c4ccccc4)cc3[C@@H]21,-47.34
COc1ccc(C#Cc2ccc([C@H]3[C@@H](CO)N4CCCCN(S(=O)(=O)c5cn(C)cn5)C[C@H]34)cc2)cc1,-26.15
COc1ccccc1CNC(=O)C[C@@H]1C[C@H]2c3cc(NS(=O)(=O)c4ccc(F)cc4)ccc3O[C@H]2[C@H](CO)O1,-10.43
O=C(C1CC1)N1CC[C@@H]2[C@H](CO)Nc3ccc(-c4ccc(F)cc4)cc3[C@@H]21,-18.66
C[C@H](CO)N1C[C@H](C)[C@@H](CN(C)S(=O)(=O)c2ccccc2F)OCc2ccccc2-c2ccccc2C1=O,-12.43
O=C(Nc1ccc(C(F)(F)F)cc1)Nc1ccc2c(c1)[C@H]1C[C@H](CC(=O)N3CCc4ccccc4C3)O[C@@H](CO)[C@H]1O2,-19.54
O=C(C[C@H]1C[C@@H]2c3cc(NC(=O)Nc4ccc(C(F)(F)F)cc4)ccc3O[C@@H]2[C@@H](CO)O1)NCc1ccc(Cl)cc1,-6.167
C[C@@H](NC(=O)[C@@H]1N[C@@H]2c3ccc(C4=CCCC4)c(=O)n3C[C@@H]2[C@H]1CO)c1ccccc1,-4.99
O=C(C[C@@H]1CC[C@@H]2[C@H](COC[C@@H](O)CN2C(=O)Nc2ccc(Cl)cc2)O1)NCC1CCCCC1,-10.24
N#Cc1ccc(-c2ccc3c(c2)[C@@H]2[C@@H](CCN2S(=O)(=O)c2cccc(F)c2)[C@H](CO)N3)cc1,-10.78
O=C(Nc1cccc(F)c1)N1CCCCN2[C@H](CO)[C@@H](c3ccc(C#CC4CC4)cc3)[C@@H]2C1,6.726
C/C=C/c1ccc(C2[C@@H]3CN(Cc4cccc(F)c4)C[C@H]2N3)cc1 (stereo not given in full),-11.7
COc1ccccc1CN1C[C@@H]2N[C@H](C1)C2c1ccc(-c2cccc(C#N)c2)cc1 (stereo not given in full),-81.37
Cc1ccccc1S(=O)(=O)N1CC[C@@H]2[C@@H](CO)Nc3ccc(-c4ccccc4)cc3[C@@H]21,-41.59
CO[C@@H]1CN(C)C(=O)c2cc(NC(=O)c3ccc(Oc4ccccc4)cc3)ccc2OC[C@@H](C)NC[C@H]1C,-36.1
CCCNC(=O)N1CC2(CCN(Cc3cccc(OC)c3)CC2)c2c(n(C)c3cc(OC)ccc23)[C@@H]1CO,-68.19

Some entries from above, unchanged:

structure	activity change (%)
C[C@@H]1CN([C@@H](C)CO)C(=O)c2c(c3ccccc3n2C)-c2ccccc2CO[C@@H]1CN(C)C(=O)[C@@H](Cc1ccccc1)N(C)C	-9.855
O=C(C[C@H]1CC[C@H]2[C@@H](COC[C@@H](O)CN2Cc2nccs2)O1)NCc1ccc(Oc2ccccc2)cc1	-16.47